From PubChem BioAssay AID256 (DTP/NCI, 2004)
The list is a part of this screen's results and no random one: it gathers tests that were run many times, whatever their T/C, doses with no T/C, and many T/C values between a quarter and a half above the control. Further doses and runs are listed elsewhere. T/C gives the treated animals as a percentage of the vehicle group. Some entries give survivors of the animals treated and no T/C: the source holds a T/C of zero for them, seemingly a mark for toxic or unscored doses. Some doses without a T/C left all or most animals alive at the check, yet need not have been tolerated: survival well below the control is almost never listed, so the zero probably covers shortened survival too. Survivors were counted at the toxicity check, usually on the fifth day, unless a day is given; later deaths do not show. Schedule codes are those of the source, read here as Q, the interval in days (D) or hours (H), X, the number of doses. For survival time, this PubChem deposit counts one and a half times the control or more as active, and values a quarter to a half above the control carry no call in these data; other NCI protocols may use other cut-offs. Some T/C values carry the count of animals alive at the toxicity check (mostly the fifth day); without a count, all were alive then. Some doses were run more than once; the values are given in rising order. Signs of the kind (2×) give the number of equal values in this list.

Tested on: CD2F1 mice, L1210 leukemia ip, survival T/C
Test: NCI In Vivo Anticancer Drug Screen. Data for tumor model L1210 Leukemia (intraperitoneal) in CD2F1 (CDF1) mice
Conditions: higher T/C = longer survival
Outline: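 Ratio T/C, where T is the treated-group value and C the vehicle-dosed control value, from mice implanted with a transplantable tumor.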

[1] = T/C endpoint: mean survival time, dose: 1.0 mg/kg/injection, schedule: Q01DX009 (ip), vehicle: water
[2] = T/C endpoint: mean survival time, dose: 200.0 mg/kg/injection, schedule: Q01DX009 (ip), vehicle: saline
[3] = T/C endpoint: mean survival time, dose: 200.0 mg/kg/injection, schedule: Q04DX003 (ip), vehicle: saline with Tween-80
[4] = T/C endpoint: mean survival time, dose: 400.0 mg/kg/injection, schedule: Q04DX003 (ip), vehicle: saline with Tween-80
[5] = T/C endpoint: mean survival time, dose: 400.0 mg/kg/injection, schedule: Q04DX003 (ip), vehicle: saline
[6] = T/C endpoint: mean survival time, dose: 200.0 mg/kg/injection, schedule: Q01DX009 (ip), vehicle: Klucel (hydroxypropylcellulose) (HPC)

COc1cc2c(c(OC)c1OC)-c1ccc(OC)c(=O)cc1[C@@H](NC(C)=O)CC2 was tested, and the T/C (T/C endpoint: mean survival time, dose: 0.06 mg/kg/injection, schedule: Q01DX005 (ip), vehicle: water) was 126 % of control, the T/C (T/C endpoint: mean survival time, dose: 0.06 mg/kg/injection, schedule: Q01DX009 (ip), vehicle: water) was 100, 101 (2×), 104, 111 % of control and the T/C (T/C endpoint: mean survival time, dose: 0.13 mg/kg/injection, schedule: Q01DX009 (ip), vehicle: water) was 101 (2×), 103, 107, 111 % of control. The T/C (T/C endpoint: mean survival time, dose: 0.25 mg/kg/injection, schedule: Q01DX009 (ip), vehicle: water) was 95, 113, 114, 117, 123 % of control, the T/C (T/C endpoint: mean survival time, dose: 0.32 mg/kg/injection, schedule: Q01DX009 (ip), vehicle: saline) was 129 % of control and the survivor count (T/C endpoint: mean survival time, dose: 0.5 mg/kg/injection, schedule: Q01DX005 (ip), vehicle: water) was 1 of 6. The T/C (T/C endpoint: mean survival time, dose: 0.5 mg/kg/injection, schedule: Q01DX009 (ip), vehicle: water) was 101 (2×), 113, 115, 138 % of control, the T/C (T/C endpoint: mean survival time, dose: 0.64 mg/kg/injection, schedule: Q01DX009 (ip), vehicle: saline) was 149 % of control and the T/C (T/C endpoint: mean survival time, dose: 1.0 mg/kg/injection, schedule: Q01DX005 (ip), vehicle: Klucel (hydroxypropylcellulose) (HPC)) was 126 % of control. The survivor count (T/C endpoint: mean survival time, dose: 1.0 mg/kg/injection, schedule: Q01DX005 (ip), vehicle: water) was 0 of 6, the T/C [1] was 89, 97 [4 of 6 alive], 111 % of control and the survivor count [1] was 5 of 6. The survivor count (T/C endpoint: mean survival time, dose: 1.5 mg/kg/injection, schedule: Q01DX009 (ip), vehicle: saline) was 3 of 6, the survivor count (T/C endpoint: mean survival time, dose: 2.0 mg/kg/injection, schedule: Q01DX005 (ip), vehicle: Klucel (hydroxypropylcellulose) (HPC)) was 0 of 6 and the survivor count (T/C endpoint: mean survival time, dose: 3.0 mg/kg/injection, schedule: Q01DX009 (ip), vehicle: saline) was 0 of 6. For the same compound, the survivor count (T/C endpoint: mean survival time, dose: 6.0 mg/kg/injection, schedule: Q01DX009 (ip), vehicle: saline) was 0 of 6, the survivor count (T/C endpoint: mean survival time, dose: 12.0 mg/kg/injection, schedule: Q01DX009 (ip), vehicle: saline) was 0 of 6 and the survivor count (T/C endpoint: mean survival time, dose: 12.5 mg/kg/injection, schedule: Q01DX009 (ip), vehicle: saline) was 0 of 6. For the same compound, the survivor count (T/C endpoint: mean survival time, dose: 12.5 mg/kg/injection, schedule: Q01DX009 (ip), vehicle: suspension in saline) was 0 of 6, the survivor count (T/C endpoint: mean survival time, dose: 25.0 mg/kg/injection, schedule: Q01DX009 (ip), vehicle: saline) was 0 of 6 and the survivor count (T/C endpoint: mean survival time, dose: 25.0 mg/kg/injection, schedule: Q01DX009 (ip), vehicle: suspension in saline) was 0 of 6. The survivor count (T/C endpoint: mean survival time, dose: 50.0 mg/kg/injection, schedule: Q01DX009 (ip), vehicle: saline) was 0 of 6, the survivor count (T/C endpoint: mean survival time, dose: 50.0 mg/kg/injection, schedule: Q01DX009 (ip), vehicle: suspension in saline) was 0 of 6 and the survivor count (T/C endpoint: mean survival time, dose: 100.0 mg/kg/injection, schedule: Q01DX009 (ip), vehicle: saline) was 0 of 6. For the same compound, the survivor count (T/C endpoint: mean survival time, dose: 100.0 mg/kg/injection, schedule: Q01DX009 (ip), vehicle: suspension in saline) was 0 of 6, the survivor count [2] was 0 of 6 and the survivor count (T/C endpoint: mean survival time, dose: 200.0 mg/kg/injection, schedule: Q01DX009 (ip), vehicle: suspension in saline) was 0 of 6. For the same compound, the survivor count (T/C endpoint: mean survival time, dose: 400.0 mg/kg/injection, schedule: Q01DX009 (ip), vehicle: saline) was 0 of 6, the survivor count (T/C endpoint: mean survival time, dose: 400.0 mg/kg/injection, schedule: Q01DX009 (ip), vehicle: suspension in saline) was 0 of 6 and the T/C (T/C endpoint: median survival time, dose: 0.5 mg/kg/injection, schedule: Q01DX005 (ip), vehicle: saline) was 133 % of control.

In the case of [O-][n+]1cc(-c2ccccc2)cc2ccccc21, the survivor count [3] is reported as 0 of 6.

For CC1CCCCN1 (stereo not drawn), the survivor count (T/C endpoint: mean survival time, dose: 200.0 mg/kg/injection, schedule: Q01DX001 (ip), vehicle: saline with Tween-80) was 1 of 1.

In the case of COC(=O)c1ccc(C)cc1C(=O)OC, the survivor count [4] is reported as 6 of 6.

With CC(C#N)(Nc1ccccc1)c1ccc(Cl)cc1 (stereo not drawn) the survivor count (T/C endpoint: mean survival time, dose: 100.0 mg/kg/injection, schedule: Q01DX009 (ip), vehicle: saline with Tween-80) was 6 of 6, the survivor count (T/C endpoint: mean survival time, dose: 100.0 mg/kg/injection, schedule: Q04DX003 (ip), vehicle: saline with Tween-80) was 6 of 6 and the survivor count [4] was 3 of 6.

For COc1ccc(CC2C(=O)NC(C)C(=O)N(C)C3Cc4ccc(cc4)Oc4cc(ccc4O)CC(C(=O)NC(C)C(=O)NC(C)C(=O)N2C)N(C)C3=O)cc1 (stereo not drawn), the T/C (T/C endpoint: mean survival time, dose: 8.0 mg/kg/injection, schedule: Q01DX009 (ip), vehicle: saline with Tween-80) was 125 % of control [5 of 6 alive] and the T/C (T/C endpoint: median survival time, dose: 8.0 mg/kg/injection, schedule: Q01DX009 (ip), vehicle: saline with Tween-80) was 134 % of control.

CCN(CC)C(=O)c1ccc[n+](Cc2ccc(Cl)cc2)c1 was tested, and the survivor count (T/C endpoint: mean survival time, dose: 200.0 mg/kg/injection, schedule: Q04DX003 (ip), vehicle: saline) was 0 of 6 and the survivor count [5] was 0 of 6.

In the case of O=C(O)COc1cc(Cl)c(Cl)cc1Cl (tested in a mixture with another compound), the survivor count (T/C endpoint: mean survival time, dose: 400.0 mg/kg/injection, schedule: Q04DX002 (ip), vehicle: saline with Tween-80) is reported as 0 of 3.

In the case of CSc1ncnc2c1cnn2C1OC(CO)C(O)C1O (stereo not drawn), the survivor count (T/C endpoint: mean survival time, dose: 400.0 mg/kg/injection, schedule: Q01DX005 (ip), vehicle: other) is reported as 2 of 5.

With CCOC(=O)c1cnc2c(cnn2CC)c1NN=C(C)C the survivor count [5] was 1 of 6.

With CCC1(O)C(=O)OCc2c1cc1n(c2=O)Cc2cc3ccc(C#N)cc3nc2-1 (stereo not drawn) the survivor count (T/C endpoint: median survival time, dose: 40.0 mg/kg/injection, schedule: Q04DX002 (ip), vehicle: saline with Tween-80) was 6 of 6 and the survivor count (T/C endpoint: median survival time, dose: 80.0 mg/kg/injection, schedule: Q04DX002 (ip), vehicle: saline with Tween-80) was 6 of 6.

In the case of CNC(=O)Oc1coc(CCl)cc1=O, the survivor count [3] is reported as 4 of 6.

O=[N+]([O-])c1ccc2c(ccn2C2OCC(O)C(O)C2O)c1 (stereo not drawn) was tested, and the survivor count (T/C endpoint: mean survival time, dose: 550.0 mg/kg/injection, schedule: Q01DX009 (ip), vehicle: saline with Tween-80) was 1 of 3.

Cc1ccc(C(C)(C)C[P+](C)(c2ccccc2)c2ccccc2)cc1 was tested, and the survivor count [6] was 3 of 6 and the survivor count (T/C endpoint: mean survival time, dose: 400.0 mg/kg/injection, schedule: Q01DX009 (ip), vehicle: Klucel (hydroxypropylcellulose) (HPC)) was 6 of 6.

With C=CCNC(=O)C[n+]1cccc(C(=O)Nc2ccccc2)c1 the survivor count [3] was 1 of 6 and the survivor count [4] was 0 of 6.

COC(=O)/C=C\C(=O)O was tested, and the survivor count [2] was 3 of 6.

In the case of O=N[O-].[Co].[NH2-].[NH2-].[NH2-].[NH2-].[NH2-], the survivor count (T/C endpoint: mean survival time, dose: 100.0 mg/kg/injection, schedule: Q01DX003 (ip), vehicle: saline) is reported as 2 of 6.

O=C1c2ccccc2C(=O)c2cc(NS(=O)(=O)C(F)(F)F)ccc21 was tested, and the survivor count (T/C endpoint: mean survival time, dose: 400.0 mg/kg/injection, schedule: Q01DX001 (ip), vehicle: saline) was 0 of 6.

COc1ccc(CCNC(=O)Cc2ccc3cc(OC)c(OC)cc3c2)cc1OC was tested, and the survivor count (T/C endpoint: mean survival time, dose: 400.0 mg/kg/injection, schedule: Q01DX009 (ip), vehicle: saline with Tween-80) was 3 of 6 and the survivor count [4] was 6 of 6.

In the case of CS(=O)(=O)OCCN(CCOS(C)(=O)=O)c1ccc(N=Nc2ccccc2C(=O)O)cc1, the T/C (T/C endpoint: mean survival time, dose: 1.56 mg/kg/injection, schedule: Q01DX009 (ip), vehicle: Klucel (hydroxypropylcellulose) (HPC)) is reported as 125 % of control, the T/C (T/C endpoint: mean survival time, dose: 3.12 mg/kg/injection, schedule: Q01DX009 (ip), vehicle: Klucel (hydroxypropylcellulose) (HPC)) is reported as 131 % of control and the T/C (T/C endpoint: mean survival time, dose: 6.25 mg/kg/injection, schedule: Q01DX009 (ip), vehicle: Klucel (hydroxypropylcellulose) (HPC)) is reported as 127 and 144 % of control. The survivor count (T/C endpoint: mean survival time, dose: 25.0 mg/kg/injection, schedule: Q01DX009 (ip), vehicle: Klucel (hydroxypropylcellulose) (HPC)) was 6 of 6, the survivor count (T/C endpoint: mean survival time, dose: 50.0 mg/kg/injection, schedule: Q01DX009 (ip), vehicle: Klucel (hydroxypropylcellulose) (HPC)) was 2 of 3 and the survivor count (T/C endpoint: mean survival time, dose: 100.0 mg/kg/injection, schedule: Q01DX009 (ip), vehicle: Klucel (hydroxypropylcellulose) (HPC)) was 0 of 3. For the same compound, the survivor count [6] was 0 of 3.
